Laboratory results published in publication PMC8338941, “Puf6 primes 60S pre-ribosome nuclear export at low temperature”.

Chains of the proteins cited; added tags and fusions are not shown.
UniProt Q04373: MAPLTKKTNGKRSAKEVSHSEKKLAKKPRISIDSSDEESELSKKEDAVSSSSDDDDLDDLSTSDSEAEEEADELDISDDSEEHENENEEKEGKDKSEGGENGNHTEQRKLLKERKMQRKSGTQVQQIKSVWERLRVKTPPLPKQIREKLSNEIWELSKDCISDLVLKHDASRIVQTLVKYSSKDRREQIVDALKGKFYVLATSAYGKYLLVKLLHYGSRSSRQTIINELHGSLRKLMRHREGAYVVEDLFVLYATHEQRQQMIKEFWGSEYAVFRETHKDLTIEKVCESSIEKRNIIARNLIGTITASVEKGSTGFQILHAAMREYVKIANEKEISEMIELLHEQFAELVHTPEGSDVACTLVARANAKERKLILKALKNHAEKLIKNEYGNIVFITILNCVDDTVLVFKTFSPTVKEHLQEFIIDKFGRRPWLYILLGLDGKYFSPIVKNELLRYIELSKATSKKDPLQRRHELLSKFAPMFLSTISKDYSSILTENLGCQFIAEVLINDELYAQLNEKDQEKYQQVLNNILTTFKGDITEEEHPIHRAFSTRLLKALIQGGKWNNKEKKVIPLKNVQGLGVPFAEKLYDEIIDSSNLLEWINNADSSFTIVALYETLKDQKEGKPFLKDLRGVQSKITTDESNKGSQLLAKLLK
UniProt P34241: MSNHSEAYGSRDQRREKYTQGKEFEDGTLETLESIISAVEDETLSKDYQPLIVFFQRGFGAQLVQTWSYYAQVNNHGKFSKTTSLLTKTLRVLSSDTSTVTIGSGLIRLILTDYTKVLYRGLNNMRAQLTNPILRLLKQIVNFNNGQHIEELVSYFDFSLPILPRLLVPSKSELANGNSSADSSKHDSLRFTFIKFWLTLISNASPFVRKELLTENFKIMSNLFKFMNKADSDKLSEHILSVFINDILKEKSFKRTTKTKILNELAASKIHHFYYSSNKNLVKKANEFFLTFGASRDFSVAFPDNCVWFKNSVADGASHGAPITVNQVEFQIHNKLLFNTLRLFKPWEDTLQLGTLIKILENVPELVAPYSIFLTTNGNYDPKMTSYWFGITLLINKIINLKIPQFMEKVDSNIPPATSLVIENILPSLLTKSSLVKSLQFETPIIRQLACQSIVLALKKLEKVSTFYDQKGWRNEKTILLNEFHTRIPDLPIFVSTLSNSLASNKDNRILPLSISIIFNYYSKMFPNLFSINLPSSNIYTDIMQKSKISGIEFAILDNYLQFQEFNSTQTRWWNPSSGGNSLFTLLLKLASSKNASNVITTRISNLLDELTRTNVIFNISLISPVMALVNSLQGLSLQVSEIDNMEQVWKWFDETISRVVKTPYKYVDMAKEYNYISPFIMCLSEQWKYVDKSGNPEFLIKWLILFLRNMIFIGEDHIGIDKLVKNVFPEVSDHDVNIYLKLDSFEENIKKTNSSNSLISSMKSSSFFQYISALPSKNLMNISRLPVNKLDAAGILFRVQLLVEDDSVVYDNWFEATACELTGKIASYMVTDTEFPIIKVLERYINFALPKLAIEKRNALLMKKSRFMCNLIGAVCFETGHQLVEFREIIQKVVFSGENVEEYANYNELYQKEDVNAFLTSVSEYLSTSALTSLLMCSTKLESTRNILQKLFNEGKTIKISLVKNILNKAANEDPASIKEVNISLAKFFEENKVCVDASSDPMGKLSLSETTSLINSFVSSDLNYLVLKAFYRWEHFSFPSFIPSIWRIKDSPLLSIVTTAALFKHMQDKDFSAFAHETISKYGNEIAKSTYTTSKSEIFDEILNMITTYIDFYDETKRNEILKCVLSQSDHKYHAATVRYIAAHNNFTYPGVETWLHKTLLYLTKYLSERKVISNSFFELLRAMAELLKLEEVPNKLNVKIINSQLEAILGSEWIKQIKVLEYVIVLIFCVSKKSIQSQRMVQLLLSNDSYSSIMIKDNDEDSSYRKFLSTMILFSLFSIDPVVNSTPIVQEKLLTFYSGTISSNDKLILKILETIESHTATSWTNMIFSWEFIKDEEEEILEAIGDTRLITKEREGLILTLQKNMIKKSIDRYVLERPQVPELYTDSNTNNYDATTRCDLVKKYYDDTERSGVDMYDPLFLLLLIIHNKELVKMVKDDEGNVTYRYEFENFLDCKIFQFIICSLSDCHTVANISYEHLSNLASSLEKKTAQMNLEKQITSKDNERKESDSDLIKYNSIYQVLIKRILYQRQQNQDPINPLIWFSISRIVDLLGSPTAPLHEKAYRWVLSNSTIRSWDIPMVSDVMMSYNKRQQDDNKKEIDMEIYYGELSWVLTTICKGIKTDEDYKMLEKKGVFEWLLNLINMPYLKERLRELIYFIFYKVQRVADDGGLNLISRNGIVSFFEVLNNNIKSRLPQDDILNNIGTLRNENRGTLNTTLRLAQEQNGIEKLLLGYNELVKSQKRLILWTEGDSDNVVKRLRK
UniProt Q05022: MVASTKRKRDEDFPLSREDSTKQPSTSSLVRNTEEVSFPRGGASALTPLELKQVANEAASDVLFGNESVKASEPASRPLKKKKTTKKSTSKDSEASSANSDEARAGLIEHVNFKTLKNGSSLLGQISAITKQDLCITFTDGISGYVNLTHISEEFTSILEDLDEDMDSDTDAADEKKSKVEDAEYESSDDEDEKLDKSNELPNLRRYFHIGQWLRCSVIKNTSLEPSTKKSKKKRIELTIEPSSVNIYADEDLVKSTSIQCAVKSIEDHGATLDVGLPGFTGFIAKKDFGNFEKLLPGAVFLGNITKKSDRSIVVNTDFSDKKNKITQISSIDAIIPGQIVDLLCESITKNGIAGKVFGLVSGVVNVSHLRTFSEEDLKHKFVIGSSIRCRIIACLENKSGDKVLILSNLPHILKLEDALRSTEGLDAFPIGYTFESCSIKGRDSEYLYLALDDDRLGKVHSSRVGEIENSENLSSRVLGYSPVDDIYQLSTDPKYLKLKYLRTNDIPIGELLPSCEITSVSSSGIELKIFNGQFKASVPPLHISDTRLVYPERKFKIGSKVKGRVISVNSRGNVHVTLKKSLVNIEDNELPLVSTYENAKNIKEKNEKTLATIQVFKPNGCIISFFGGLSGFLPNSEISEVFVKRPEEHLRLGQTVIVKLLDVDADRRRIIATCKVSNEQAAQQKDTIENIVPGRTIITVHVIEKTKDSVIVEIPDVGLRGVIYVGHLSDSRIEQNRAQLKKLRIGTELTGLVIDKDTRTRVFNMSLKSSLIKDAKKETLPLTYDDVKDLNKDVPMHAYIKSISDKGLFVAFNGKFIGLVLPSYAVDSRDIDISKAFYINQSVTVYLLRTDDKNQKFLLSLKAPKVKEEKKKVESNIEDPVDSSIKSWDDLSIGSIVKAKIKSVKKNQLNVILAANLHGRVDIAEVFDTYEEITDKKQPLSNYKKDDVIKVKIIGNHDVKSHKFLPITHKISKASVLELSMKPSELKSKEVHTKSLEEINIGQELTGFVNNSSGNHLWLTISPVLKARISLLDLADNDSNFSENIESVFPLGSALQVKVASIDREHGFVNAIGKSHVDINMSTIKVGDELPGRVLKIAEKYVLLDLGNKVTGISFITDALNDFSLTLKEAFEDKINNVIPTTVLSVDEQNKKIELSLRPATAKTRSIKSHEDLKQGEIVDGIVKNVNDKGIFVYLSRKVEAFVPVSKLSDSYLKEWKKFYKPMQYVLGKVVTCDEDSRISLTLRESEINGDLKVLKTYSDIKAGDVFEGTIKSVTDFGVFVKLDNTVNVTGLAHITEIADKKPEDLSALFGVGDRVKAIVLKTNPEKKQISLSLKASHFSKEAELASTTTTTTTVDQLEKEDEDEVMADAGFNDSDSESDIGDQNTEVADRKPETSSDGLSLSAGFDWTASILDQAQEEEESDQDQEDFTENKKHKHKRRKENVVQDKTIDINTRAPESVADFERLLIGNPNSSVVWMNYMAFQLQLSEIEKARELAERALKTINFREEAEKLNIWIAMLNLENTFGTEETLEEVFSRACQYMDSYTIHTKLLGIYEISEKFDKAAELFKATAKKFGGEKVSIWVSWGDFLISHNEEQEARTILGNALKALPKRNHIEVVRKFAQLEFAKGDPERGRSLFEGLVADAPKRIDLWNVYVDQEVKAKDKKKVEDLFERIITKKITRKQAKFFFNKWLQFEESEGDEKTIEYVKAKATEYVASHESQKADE

B1: Noc1 (protein, UniProt Q12176 1-1025)
chain: MSENNGNPLDLSSLRNKISSKLRDNNSKKAKKTHKGKDVKASSNSKKVNEDIRREALALGASEEDLKLIQGLSDDDDAKSEQEFDAVADEDADDKGFKNDLQNFMKNVGFDQHKLEDVDDDDIEEESTSSKESKIPAQEKEHAQSNIASSTIEKTSQESIDNGSEQEENTVEEANLSSDQEPESESAEKEKKEEKDGGLITQTTIISSDKLIIPYDKPWYEIPLDPQVGQNDDVEELSKEQIEKLFERGKQTLEADNQTYYEEFTKDSSQAKFMSQILSDGTLNDKISAVTLLIQDSPLHNTKSLETLVSYCGKKSRNSALQSLNALKDLFLNGLLPNRKLRYFKNQPGLSMMLNKKTLAIFYFEDYLKKLFFRVLEVLEVLSHDPIIHVRLQILNHVFDLLTNQPEQEFNLLRLGVNKIGDIDSKVSSKASYLLLKLEQAHPNMKSIVIDAIVDIALRPNADYHTTYYSVITLNQTILKRSEDSVANKLVKTYFTLFEKFLINTDKDNTNGVVKSNSKSYEEKRKKNFKKGKHGGKSVKIEKTENEVLDEKNSKLFSALLTGINRAFPFAQIPASVYEVHMETLFKITHSSNFNTSIQALVLINQVTVKAKLNSDRYYRTLYESLFDPRLVNSSKQGIYLNLLYKSLKQDALNVERVEAFVKRILQVCSHWLNVGTITGFFFLLIQLAKTVPQIKNLLTNTPVDYEYESDAEEEQGDKDIKRKEYDGRKRDPKFANAEKSSLWEINNFINHFHPTVKTYANAYVTGETEQIAKPDLGLFTLSHFLDRFVYRSAKQTNTARGTSIMQPLFSGSRVNDSVLVKASDIMHDQGPVNTEDWLTKKVEDIKPEDKFFYQYFTTKKTADGKGKKSNKASNFDSDDEMDENEIWSALVKSRPDVEDDSDDSELDFAEDDFSDSTSDDEPKLDAIDDEDAKSEGSQESDQEEGLDEDIFYSFDGEQDNSDKKRSFAESSEEDESSEEEKEEEENKEVSAKRAKKKQRKNMLKSLPVFASADDYAQYLDQDSD
B2: Rrp1 (protein, UniProt P35178 1-278)
chain: METSNFVKQLSSNNRKTRVNALEALKKYLTAKQFKENKQIEFNKLWKGLYYAMWFSDRPRPQQRLANELGELHGLYFDPKDNSTADELTTNDKAFIKFSRGFWKVMCFEWFNIDRYRLDKYLLLIRRVLFSQLKYLQSRNWDKKLVDEYIKKVLRWLPLSGSPKVYTGIPIHIVDILLDEWERLLKDGDEDDEDEENKEEEMRKIAESAKKTPLADVIAIFQDIVADYNNSKVLREKIKEDLFSDTRLVSWDILEGETQHNDSSNESEEEEEEEWKGF
B3: Mak11 (protein, UniProt P20484 1-414)
chain: MSAIGDKNQFRIIVGSYEHNILCLSLDIPNQKENDAAKTPHFMPIFHFQAHSLSIKCLAVSRRYLVSGSNDEHIRIYDLQKRKELGTLLSHQGSITALQFSHPASSSEDAAVSKGSKNSKWLLSASEDHKIMVWRVKDWETVGTLKGHTARVNDVDIHPTNRIAISVSDDHSIRLWNLMTLRNAAVLKLRKYNTNGTCVRWLGAKGDYFAVGLRDRVLIYETGSAKVFKEIVFQRKTLMHIETHILPFDNKEYLSVGISDGNVHFYPCEELFEKVEENEKQEDDDDKEDISPAFSLLGHTNRIKDFKFYTNEFGTYLVTIGSDGKIVVWDMSTKEQVAVYDCGERLNCLTLCDESIEKYNTMKKRDAETADIGDQSEVESDTEELKKIMFGEKKKLNKKKRKQLKKSKVSVELE

The molecules below were run against Puf6-TAP (S. cerevisiae) (UniProt Q04373) (assay: affinity purification with mass spectrometry; Puf6-TAP particle separated on a NuPAGE 4-12% Bis-Tris gradient gel, Silver staining; indicated proteins identified by mass spectrometry).
For Urb1 (from UniProt P34241 1-1764), the binding was “binds”. For Rrp5 (from UniProt Q05022 1-1729), the binding was “binds”. With B1 the binding was “binds”. B2 was tested, and the binding was “binds”. B3 was tested, and the binding was “binds”.

These are yes or no findings as the source states them, for the method shown. Binding seen in cells or lysates may run through a third protein. Here binding means that the protein was enriched with, or labelled near, the bait; the list need not be complete.
